Laboratory results: PubChem BioAssay AID330 (DTP/NCI, 2004)
The list is a part of this screen's results and no random one: it gathers tests that were run many times, whatever their T/C, doses with no T/C, and many T/C values between a quarter and a half above the control. Further doses and runs are listed elsewhere. T/C is the treated group as % of the vehicle group. Some doses have a count of surviving animals in place of a T/C: the source files T/C as zero there, which appears to mark a toxic dose or a test without result, not a measured value. Some doses without a T/C left all or most animals alive at the check, yet need not have been tolerated: survival well below the control is almost never listed, so the zero probably covers shortened survival too. Survivors were counted at the toxicity check, usually on the fifth day, unless a day is given; later deaths do not show. Schedule codes are those of the source, taken here to give the interval after Q, in days (D) or hours (H), and the number of doses after X. Some entries hold several experiments; the results are listed from low to high. For survival time, the PubChem record calls one and a half times the control and up active, and a quarter to a half above the control has no call in these data; cut-offs in other NCI protocols can differ. Some T/C values are followed by the survivors on the day toxicity was checked, most often the fifth; without a count, all were alive then.

Tested on: P388 leukemia ip, CD2F1 mice, survival T/C
Assay: NCI In Vivo Anticancer Drug Screen. Data for tumor model P388 Leukemia (intraperitoneal) in CD2F1 (CDF1) mice
Conditions: T/C endpoint: median survival time, higher T/C = longer survival
[1] = dose: 200.0 mg/kg/injection, schedule: Q01DX009 (ip), vehicle: saline
[2] = dose: 400.0 mg/kg/injection, schedule: Q01DX009 (ip), vehicle: saline
[3] = dose: 200.0 mg/kg/injection, schedule: Q01DX005 (ip), vehicle: Klucel (hydroxypropylcellulose) (HPC)
[4] = dose: 50.0 mg/kg/injection, schedule: Q01DX009 (ip), vehicle: saline
[5] = dose: 100.0 mg/kg/injection, schedule: Q01DX009 (ip), vehicle: saline
[6] = dose: 200.0 mg/kg/injection, schedule: Q01DX009 (ip), vehicle: Klucel (hydroxypropylcellulose) (HPC)
[7] = dose: 200.0 mg/kg/injection, schedule: Q01DX005 (ip), vehicle: saline with Tween-80
[8] = dose: 60.0 mg/kg/injection, schedule: Q01DX005 (ip), vehicle: saline with Tween-80
[9] = dose: 120.0 mg/kg/injection, schedule: Q01DX005 (ip), vehicle: saline with Tween-80
[10] = dose: 240.0 mg/kg/injection, schedule: Q01DX005 (ip), vehicle: saline with Tween-80
[11] = dose: 50.0 mg/kg/injection, schedule: Q01DX005 (ip), vehicle: saline with Tween-80
[12] = dose: 100.0 mg/kg/injection, schedule: Q01DX005 (ip), vehicle: saline with Tween-80
[13] = dose: 6.25 mg/kg/injection, schedule: Q01DX009 (ip), vehicle: distilled water + alcohol

CC(C)(C#N)C#N was tested, and the survivor count (dose: 100.0 mg/kg/injection, schedule: Q04DX003 (ip), vehicle: saline with Tween-80) was 3 of 6, the survivor count (dose: 200.0 mg/kg/injection, schedule: Q04DX003 (ip), vehicle: saline with Tween-80) was 1 of 6 and the survivor count (dose: 400.0 mg/kg/injection, schedule: Q04DX003 (ip), vehicle: saline with Tween-80) was 0 of 6.

With CCOC(=O)NNc1cccc(Cl)c1 the survivor count [1] was 1 of 6 and the survivor count [2] was 0 of 6.

For CC(=O)OCC1C(=O)OCC1C(=O)N1Cc2cc3ccccc3nc2C1 (stereo unspecified), the T/C (dose: 64.0 mg/kg/injection, schedule: Q01DX009 (ip), vehicle: saline with Tween-80) was 135 % of control.

O=C(NC(Cc1c[nH]c2ccccc12)C(=O)O)OCC1c2ccccc2-c2ccccc21 (stereo unspecified) was tested, and the survivor count [3] was 0 of 6.

With CCCOC(=O)C(F)C(Br)C(=O)OCCC (stereo unspecified) the T/C (dose: 200.0 mg/kg/injection, schedule: Q01DX009 (ip), vehicle: saline with Tween-80) was 126 % of control and the survivor count (dose: 400.0 mg/kg/injection, schedule: Q01DX009 (ip), vehicle: saline with Tween-80) was 1 of 6.

CCC1(c2ccccc2)N=C1N(C)C (stereo unspecified) was tested, and the T/C [4] was 96 and 122 % of control, the survivor count [4] was 0 of 6 and the survivor count [5] was 0 of 6 and 6 of 6. For the same compound, the survivor count [1] was 0 of 6.

With Cn1c(=O)[nH]c2nncnc2c1=O the survivor count (dose: 50.0 mg/kg/injection, schedule: Q01DX009 (ip), vehicle: water) was 2 of 6 and the survivor count (dose: 100.0 mg/kg/injection, schedule: Q01DX009 (ip), vehicle: water) was 0 of 6.

For COc1cccc2c1C(=O)c1c(O)c3c(c(O)c1C2=O)C[C@@](O)(C(C)=O)C[C@@H]3OC1CC(N)C(OC2CC(N)C(OC)C(C)O2)C(C)O1 (stereo partly specified), the T/C (dose: 12.5 mg/kg/injection, schedule: Q04DX003 (ip), vehicle: water, evaluated on day 35) was 126 % of control, the T/C (dose: 12.5 mg/kg/injection, schedule: Q04DX003 (ip), vehicle: water, evaluated on day 45) was 126 % of control and the T/C (dose: 25.0 mg/kg/injection, schedule: Q04DX003 (ip), vehicle: water, evaluated on day 35) was 132 % of control. For the same compound, the T/C (dose: 25.0 mg/kg/injection, schedule: Q04DX003 (ip), vehicle: water, evaluated on day 45) was 146 % of control and the T/C (dose: 50.0 mg/kg/injection, schedule: Q04DX003 (ip), vehicle: water) was 127 % of control.

In the case of N=C(N)c1cn(C2OC(CO)C(O)C2O)c2ncnc(N)c12 (stereo unspecified), the T/C (dose: 2.2 mg/kg/injection, schedule: Q04DX003 (ip), vehicle: saline) is reported as 140 % of control, the T/C (dose: 3.3 mg/kg/injection, schedule: Q04DX003 (ip), vehicle: saline) is reported as 140 % of control and the T/C (dose: 5.0 mg/kg/injection, schedule: Q04DX003 (ip), vehicle: saline) is reported as 145 % of control. The survivor count (dose: 100.0 mg/kg/injection, schedule: Q04DX003 (ip), vehicle: saline) was 1 of 6, the survivor count (dose: 200.0 mg/kg/injection, schedule: Q04DX003 (ip), vehicle: saline) was 1 of 6 and the survivor count (dose: 400.0 mg/kg/injection, schedule: Q04DX003 (ip), vehicle: saline) was 0 of 6.

For C=CC(=O)NC1(c2ccccc2)CN2CCC1CC2 (stereo unspecified), the survivor count (dose: 100.0 mg/kg/injection, schedule: Q01DX009 (ip), vehicle: Klucel (hydroxypropylcellulose) (HPC)) was 0 of 6, the survivor count [6] was 0 of 6 and the survivor count (dose: 400.0 mg/kg/injection, schedule: Q01DX009 (ip), vehicle: Klucel (hydroxypropylcellulose) (HPC)) was 0 of 6.

CC(=O)OC1C(c2ccc(Cl)cc2)CC2CCC1N2C (stereo unspecified) was tested, and the survivor count [7] was 0 of 6.

In the case of C/C(=N\N)C1C(=O)c2ccccc2C1=O, the survivor count (dose: 12.5 mg/kg/injection, schedule: Q01DX009 (ip), vehicle: saline) is reported as 6 of 6, the survivor count [4] is reported as 6 of 6 and the survivor count [5] is reported as 6 of 6. For the same compound, the survivor count [1] was 4 of 6.

For Cc1cccc(C)c1Nc1nnc(-c2ccccc2)s1, the survivor count [8] was 6 of 6, the survivor count [9] was 6 of 6 and the survivor count [10] was 6 of 6.

For CSC(=S)c1c(O)ccc2ccccc12, the survivor count (dose: 200.0 mg/kg/injection, schedule: Q04DX002 (ip), vehicle: saline with Tween-80) was 1 of 6 and the survivor count (dose: 400.0 mg/kg/injection, schedule: Q04DX002 (ip), vehicle: saline with Tween-80) was 0 of 6.

With CCN1c2ccccc2S(=O)(=O)n2c(COc3ccccc3)nnc21 the survivor count (dose: 100.0 mg/kg/injection, schedule: Q01DX001 (ip), vehicle: saline with Tween-80) was 6 of 6, the survivor count (dose: 200.0 mg/kg/injection, schedule: Q01DX001 (ip), vehicle: saline with Tween-80) was 6 of 6 and the survivor count (dose: 400.0 mg/kg/injection, schedule: Q01DX001 (ip), vehicle: saline with Tween-80) was 6 of 6.

O=C(/C=C/c1c(-c2ccccc2)[nH]c2ccccc12)c1ccccc1O was tested, and the survivor count [8] was 6 of 6 and the survivor count [9] was 6 of 6.

With CCN(CC)CC.COC(=O)NC#N.[CH-]1CCCCC1.[CH-]1CCCCC1.[CH-]1CCCCC1.[Cl-].[Sn+4] the survivor count (dose: 12.5 mg/kg/injection, schedule: Q01DX005 (ip), vehicle: saline with Tween-80) was 0 of 6, the survivor count [11] was 0 of 6 and the survivor count [12] was 0 of 6. For the same compound, the survivor count [7] was 0 of 6.

With COc1cccc2c1C(=O)c1c(O)c3c(c(O)c1C2=O)C[C@@](O)(c1csc(-c2ccncc2)n1)C[C@@H]3OC1CC(N)C(O)C(C)O1 (stereo partly specified) the T/C (dose: 100.0 mg/kg/injection, schedule: Q04DX003 (ip), vehicle: water) was 135 % of control.

In the case of C#CCSc1nc2ccccc2s1, the survivor count [6] is reported as 1 of 6.

In the case of O=c1cc[nH]cc1[N+](=O)[O-], the survivor count [2] is reported as 0 of 6 and 3 of 6.

CC(C)(C)CC(C)(C)N[P+](NC(C)(C)CC(C)(C)C)(NC(C)(C)CC(C)(C)C)NC(C)(C)CC(C)(C)C was tested, and the T/C (dose: 1.56 mg/kg/injection, schedule: Q01DX009 (ip), vehicle: distilled water + alcohol) was 140 % of control [5 of 6 alive], the T/C (dose: 3.12 mg/kg/injection, schedule: Q01DX009 (ip), vehicle: distilled water + alcohol) was 146 % of control and the T/C [13] was 138 % of control. For the same compound, the survivor count [13] was 5 of 6, the survivor count (dose: 12.5 mg/kg/injection, schedule: Q01DX009 (ip), vehicle: distilled water + alcohol) was 2 of 6 and 4 of 6 and the survivor count (dose: 25.0 mg/kg/injection, schedule: Q01DX009 (ip), vehicle: distilled water + alcohol) was 0 of 6. The survivor count (dose: 50.0 mg/kg/injection, schedule: Q01DX009 (ip), vehicle: distilled water + alcohol) was 0 of 6, the survivor count (dose: 100.0 mg/kg/injection, schedule: Q01DX009 (ip), vehicle: distilled water + alcohol) was 0 of 6 and the survivor count (dose: 200.0 mg/kg/injection, schedule: Q01DX009 (ip), vehicle: distilled water + alcohol) was 0 of 6.

CC(=O)c1ccc(N=C(C#N)C2=C(O)c3ccccc3C2=O)cc1 was tested, and the survivor count [10] was 2 of 6.

With C=C(CSc1ccc(C(=O)O)c([N+](=O)[O-])c1)c1ccc([N+](=O)[O-])cc1 the survivor count [5] was 6 of 6 and the survivor count [1] was 6 of 6.

N#CC(C(=O)C(=O)Nc1cccc(C(F)(F)F)c1)c1ccccc1 (stereo unspecified) was tested, and the survivor count [7] was 0 of 6.

O=[N+]([O-])c1ncccc1NCCN1CCCC1 was tested, and the survivor count [5] was 1 of 6 and the survivor count [1] was 0 of 6.

In the case of N#Cc1cn(C2OC(CO)C(O)C2O)c2ncnc(Cl)c12 (stereo unspecified), the T/C (dose: 15.0 mg/kg/injection, schedule: Q01DX005 (ip), vehicle: saline with Tween-80) is reported as 147 % of control, the T/C (dose: 30.0 mg/kg/injection, schedule: Q01DX005 (ip), vehicle: saline with Tween-80) is reported as 147 % of control and the T/C [9] is reported as 149 % of control. The survivor count [10] was 6 of 6.

In the case of O=c1[nH]cnc2nc(/N=N/SCCO)[nH]c12, the T/C (dose: 50.0 mg/kg/injection, schedule: Q01DX005 (ip), vehicle: Klucel (hydroxypropylcellulose) (HPC)) is reported as 126 % of control, the T/C (dose: 100.0 mg/kg/injection, schedule: Q01DX005 (ip), vehicle: Klucel (hydroxypropylcellulose) (HPC)) is reported as 136 % of control [5 of 6 alive] and the T/C [3] is reported as 135 [3 of 4 alive] and 142 % of control.

O=C1CCC(=O)N1SC(Cl)(Cl)Cl was tested, and the survivor count [11] was 2 of 5, the survivor count [12] was 0 of 5 and the survivor count [7] was 0 of 5.
